Data taken from PMC8975272, “Novel glucagon-like peptide-1 analogue exhibits potency-driven G-protein biased agonism with promising effects on diabetes and diabetic dry eye syndrome” (Bioengineered, 2022).
Results are given in words; binding and its absence hold for the method and conditions named. Binding seen in cells or lysates may run through a third protein. Some entries that bind do so weakly or less than the wild type.

The chains behind the UniProt entries cited, without tags or fusion partners. Residues count along the entry.
UniProt P43220, residues 24-463: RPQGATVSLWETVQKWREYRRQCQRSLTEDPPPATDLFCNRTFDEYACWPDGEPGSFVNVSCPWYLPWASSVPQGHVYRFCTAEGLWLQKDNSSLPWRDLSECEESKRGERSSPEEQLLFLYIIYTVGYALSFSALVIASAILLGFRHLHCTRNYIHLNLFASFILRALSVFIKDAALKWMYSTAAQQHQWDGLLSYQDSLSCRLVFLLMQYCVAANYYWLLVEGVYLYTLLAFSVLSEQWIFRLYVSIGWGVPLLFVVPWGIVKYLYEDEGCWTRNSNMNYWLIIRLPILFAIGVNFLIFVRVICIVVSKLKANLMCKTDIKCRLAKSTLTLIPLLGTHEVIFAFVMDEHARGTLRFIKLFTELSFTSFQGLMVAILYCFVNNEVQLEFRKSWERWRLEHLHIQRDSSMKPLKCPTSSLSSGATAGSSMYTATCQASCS
UniProt P32121: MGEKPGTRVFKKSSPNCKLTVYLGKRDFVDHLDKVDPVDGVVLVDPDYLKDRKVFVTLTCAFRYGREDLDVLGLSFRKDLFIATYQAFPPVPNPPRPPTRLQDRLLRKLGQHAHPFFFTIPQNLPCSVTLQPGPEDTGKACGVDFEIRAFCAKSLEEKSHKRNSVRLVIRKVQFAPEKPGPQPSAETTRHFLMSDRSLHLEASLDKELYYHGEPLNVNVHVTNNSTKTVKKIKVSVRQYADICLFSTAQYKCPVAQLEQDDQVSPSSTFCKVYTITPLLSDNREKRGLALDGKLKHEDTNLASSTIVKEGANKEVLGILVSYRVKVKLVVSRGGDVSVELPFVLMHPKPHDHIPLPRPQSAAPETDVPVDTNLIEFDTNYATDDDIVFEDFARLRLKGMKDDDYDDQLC

Molecular target: GLP-1R in PathHunter CHO-K1-βarr2-EA-GLP-1R cells (UniProt P43220)
Assay: split reporter; PathHunter CHO-K1-βarr2-EA-GLP-1R cells stimulated with agonist (SM102 or Semaglutide) for 30 min at 37°C in Ham's F12 medium without FBS; lysed with PathHunter detection reagents, luminescence read

- binding: binds
Substance: β-arrestin-2 in PathHunter CHO-K1-βarr2-EA-GLP-1R cells (from UniProt P32121 1-409)
